In article PMC6424098:
Numbering of substitutions follows the chain as printed. Results are given in words; binding and its absence hold for the method and conditions named. Binding seen in cells or lysates may run through a third protein. Some entries that bind do so weakly or less than the wild type. For some of these results: Where a sequence is shown, tags or fusion partners need not be part of it.

Amino acid sequences for entries named in this document (tags omitted). A change or cut given only in a name is not applied to a line headed by its entry.
UniProt Q9UBB5: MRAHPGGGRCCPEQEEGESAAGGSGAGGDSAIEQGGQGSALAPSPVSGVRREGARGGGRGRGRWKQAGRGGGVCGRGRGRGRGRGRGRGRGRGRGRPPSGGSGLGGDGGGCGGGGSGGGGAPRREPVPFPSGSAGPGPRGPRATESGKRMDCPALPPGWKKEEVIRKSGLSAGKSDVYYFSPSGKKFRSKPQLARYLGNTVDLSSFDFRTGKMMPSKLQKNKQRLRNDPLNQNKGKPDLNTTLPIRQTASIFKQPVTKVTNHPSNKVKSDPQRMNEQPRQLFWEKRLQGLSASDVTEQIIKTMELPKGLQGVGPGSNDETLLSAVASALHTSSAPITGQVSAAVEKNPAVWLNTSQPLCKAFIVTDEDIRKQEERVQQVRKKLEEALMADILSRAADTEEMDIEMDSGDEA
UniProt O95983: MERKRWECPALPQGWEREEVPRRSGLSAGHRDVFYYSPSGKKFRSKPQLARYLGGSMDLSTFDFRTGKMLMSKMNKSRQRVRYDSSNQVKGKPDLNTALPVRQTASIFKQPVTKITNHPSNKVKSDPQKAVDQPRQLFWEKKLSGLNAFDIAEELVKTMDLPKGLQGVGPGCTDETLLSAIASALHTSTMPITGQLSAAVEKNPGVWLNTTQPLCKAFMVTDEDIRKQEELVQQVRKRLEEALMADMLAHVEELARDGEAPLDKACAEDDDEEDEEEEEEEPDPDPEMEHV
UniProt Q9UBL3: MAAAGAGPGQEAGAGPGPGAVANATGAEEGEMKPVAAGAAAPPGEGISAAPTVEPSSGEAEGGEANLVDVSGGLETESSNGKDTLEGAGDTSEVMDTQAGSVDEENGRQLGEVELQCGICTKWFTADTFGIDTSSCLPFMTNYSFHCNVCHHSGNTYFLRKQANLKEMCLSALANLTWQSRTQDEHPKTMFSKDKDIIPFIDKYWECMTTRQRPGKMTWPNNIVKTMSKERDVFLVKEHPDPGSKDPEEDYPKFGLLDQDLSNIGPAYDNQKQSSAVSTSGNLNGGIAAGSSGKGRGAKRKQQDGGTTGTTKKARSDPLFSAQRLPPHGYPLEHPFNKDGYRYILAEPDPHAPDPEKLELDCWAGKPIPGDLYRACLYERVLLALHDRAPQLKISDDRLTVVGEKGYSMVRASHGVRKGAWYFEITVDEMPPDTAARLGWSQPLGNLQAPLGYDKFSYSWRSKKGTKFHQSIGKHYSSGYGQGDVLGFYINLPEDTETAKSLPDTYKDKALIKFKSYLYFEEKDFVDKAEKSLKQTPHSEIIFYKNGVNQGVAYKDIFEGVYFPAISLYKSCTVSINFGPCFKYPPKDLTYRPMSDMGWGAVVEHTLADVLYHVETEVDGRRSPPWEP
UniProt Q92830: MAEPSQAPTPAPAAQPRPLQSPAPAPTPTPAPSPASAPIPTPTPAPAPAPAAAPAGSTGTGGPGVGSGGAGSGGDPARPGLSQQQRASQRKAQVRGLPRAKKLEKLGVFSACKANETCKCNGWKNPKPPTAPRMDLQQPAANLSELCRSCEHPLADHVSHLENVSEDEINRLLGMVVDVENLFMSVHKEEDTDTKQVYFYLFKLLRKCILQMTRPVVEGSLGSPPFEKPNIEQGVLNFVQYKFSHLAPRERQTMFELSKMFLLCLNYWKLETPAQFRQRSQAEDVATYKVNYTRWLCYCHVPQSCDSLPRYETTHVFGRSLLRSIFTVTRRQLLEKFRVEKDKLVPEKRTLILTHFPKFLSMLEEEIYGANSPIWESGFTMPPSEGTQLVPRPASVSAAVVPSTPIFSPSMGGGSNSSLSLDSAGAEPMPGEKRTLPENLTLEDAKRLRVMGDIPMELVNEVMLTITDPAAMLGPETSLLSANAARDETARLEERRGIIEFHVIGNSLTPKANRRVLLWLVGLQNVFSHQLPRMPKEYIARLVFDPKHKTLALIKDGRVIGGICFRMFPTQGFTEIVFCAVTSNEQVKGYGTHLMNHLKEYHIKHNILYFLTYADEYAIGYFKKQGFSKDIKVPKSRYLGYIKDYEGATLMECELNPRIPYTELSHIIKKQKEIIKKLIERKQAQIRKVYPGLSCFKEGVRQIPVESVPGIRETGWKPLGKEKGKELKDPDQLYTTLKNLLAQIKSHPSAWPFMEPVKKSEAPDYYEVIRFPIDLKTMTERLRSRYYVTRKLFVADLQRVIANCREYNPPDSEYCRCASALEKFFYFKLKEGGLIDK
UniProt Q04726: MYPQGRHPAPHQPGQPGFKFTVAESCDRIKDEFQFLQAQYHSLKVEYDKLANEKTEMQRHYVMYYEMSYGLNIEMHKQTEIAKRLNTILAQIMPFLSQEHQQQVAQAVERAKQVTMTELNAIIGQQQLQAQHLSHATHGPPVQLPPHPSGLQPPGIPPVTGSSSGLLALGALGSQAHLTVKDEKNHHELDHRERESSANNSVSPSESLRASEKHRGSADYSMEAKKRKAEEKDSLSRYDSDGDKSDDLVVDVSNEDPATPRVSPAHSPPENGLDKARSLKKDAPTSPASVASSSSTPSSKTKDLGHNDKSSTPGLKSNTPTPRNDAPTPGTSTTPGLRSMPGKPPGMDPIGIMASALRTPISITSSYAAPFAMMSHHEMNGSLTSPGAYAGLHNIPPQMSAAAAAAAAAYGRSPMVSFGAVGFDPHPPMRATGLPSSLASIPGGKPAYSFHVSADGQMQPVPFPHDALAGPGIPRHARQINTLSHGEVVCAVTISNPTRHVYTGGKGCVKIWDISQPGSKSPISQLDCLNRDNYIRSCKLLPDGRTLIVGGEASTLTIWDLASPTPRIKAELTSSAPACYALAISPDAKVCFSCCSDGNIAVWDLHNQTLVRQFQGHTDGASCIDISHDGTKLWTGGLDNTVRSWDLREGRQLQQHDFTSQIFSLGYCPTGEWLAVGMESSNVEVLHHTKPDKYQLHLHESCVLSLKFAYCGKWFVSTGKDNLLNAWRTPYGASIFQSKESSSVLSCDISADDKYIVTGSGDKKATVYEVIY
UniProt Q9Y5B9: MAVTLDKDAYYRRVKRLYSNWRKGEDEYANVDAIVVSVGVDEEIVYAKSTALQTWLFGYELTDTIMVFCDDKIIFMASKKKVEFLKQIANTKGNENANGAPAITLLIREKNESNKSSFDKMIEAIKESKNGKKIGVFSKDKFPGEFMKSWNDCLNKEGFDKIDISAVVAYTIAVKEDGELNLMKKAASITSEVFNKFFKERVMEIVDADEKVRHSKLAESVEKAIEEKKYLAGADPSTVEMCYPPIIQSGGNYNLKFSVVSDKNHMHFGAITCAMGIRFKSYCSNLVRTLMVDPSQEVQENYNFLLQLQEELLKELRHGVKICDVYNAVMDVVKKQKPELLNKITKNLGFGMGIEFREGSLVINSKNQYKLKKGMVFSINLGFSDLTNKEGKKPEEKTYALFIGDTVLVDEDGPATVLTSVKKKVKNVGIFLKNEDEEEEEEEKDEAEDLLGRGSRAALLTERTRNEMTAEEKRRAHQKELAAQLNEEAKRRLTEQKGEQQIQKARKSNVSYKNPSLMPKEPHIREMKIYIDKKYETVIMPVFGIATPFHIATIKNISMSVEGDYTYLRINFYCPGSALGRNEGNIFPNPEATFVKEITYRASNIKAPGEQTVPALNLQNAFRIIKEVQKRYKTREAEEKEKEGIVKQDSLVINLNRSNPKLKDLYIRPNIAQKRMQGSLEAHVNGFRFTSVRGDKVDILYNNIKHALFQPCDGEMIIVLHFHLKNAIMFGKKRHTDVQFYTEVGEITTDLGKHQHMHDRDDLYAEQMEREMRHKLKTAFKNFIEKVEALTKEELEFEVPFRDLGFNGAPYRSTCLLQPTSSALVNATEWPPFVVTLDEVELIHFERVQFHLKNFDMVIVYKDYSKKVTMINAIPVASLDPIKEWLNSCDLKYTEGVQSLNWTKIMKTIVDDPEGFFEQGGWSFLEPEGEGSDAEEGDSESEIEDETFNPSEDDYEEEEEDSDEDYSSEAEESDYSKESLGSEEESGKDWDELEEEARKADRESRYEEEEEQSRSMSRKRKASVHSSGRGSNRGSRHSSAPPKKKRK
UniProt Q9NPF5: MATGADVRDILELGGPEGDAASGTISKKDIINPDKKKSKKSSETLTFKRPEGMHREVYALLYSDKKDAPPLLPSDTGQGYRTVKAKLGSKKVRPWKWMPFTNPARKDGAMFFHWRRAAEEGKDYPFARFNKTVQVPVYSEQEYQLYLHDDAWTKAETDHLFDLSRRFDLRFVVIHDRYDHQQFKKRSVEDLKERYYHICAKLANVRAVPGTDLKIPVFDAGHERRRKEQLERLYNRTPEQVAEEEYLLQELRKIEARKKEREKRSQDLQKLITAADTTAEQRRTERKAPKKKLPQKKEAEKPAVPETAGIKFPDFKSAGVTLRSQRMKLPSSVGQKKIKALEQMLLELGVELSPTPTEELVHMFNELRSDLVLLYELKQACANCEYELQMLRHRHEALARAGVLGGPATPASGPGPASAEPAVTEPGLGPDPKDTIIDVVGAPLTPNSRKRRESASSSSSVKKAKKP
UniProt Q04206: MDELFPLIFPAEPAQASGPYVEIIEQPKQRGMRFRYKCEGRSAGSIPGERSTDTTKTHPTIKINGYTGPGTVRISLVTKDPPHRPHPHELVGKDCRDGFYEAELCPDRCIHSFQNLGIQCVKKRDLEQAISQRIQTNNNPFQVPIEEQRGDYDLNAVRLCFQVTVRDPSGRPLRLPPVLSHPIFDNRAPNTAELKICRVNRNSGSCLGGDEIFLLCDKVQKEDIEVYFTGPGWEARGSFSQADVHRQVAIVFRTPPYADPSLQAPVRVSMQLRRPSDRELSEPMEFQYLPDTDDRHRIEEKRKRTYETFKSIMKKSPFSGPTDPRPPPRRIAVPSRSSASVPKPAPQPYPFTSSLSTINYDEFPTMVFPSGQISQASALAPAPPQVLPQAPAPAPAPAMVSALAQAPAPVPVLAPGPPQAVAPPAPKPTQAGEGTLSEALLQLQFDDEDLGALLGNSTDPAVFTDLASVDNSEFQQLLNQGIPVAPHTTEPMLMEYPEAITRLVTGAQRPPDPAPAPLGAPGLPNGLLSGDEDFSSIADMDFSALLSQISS
UniProt P40763: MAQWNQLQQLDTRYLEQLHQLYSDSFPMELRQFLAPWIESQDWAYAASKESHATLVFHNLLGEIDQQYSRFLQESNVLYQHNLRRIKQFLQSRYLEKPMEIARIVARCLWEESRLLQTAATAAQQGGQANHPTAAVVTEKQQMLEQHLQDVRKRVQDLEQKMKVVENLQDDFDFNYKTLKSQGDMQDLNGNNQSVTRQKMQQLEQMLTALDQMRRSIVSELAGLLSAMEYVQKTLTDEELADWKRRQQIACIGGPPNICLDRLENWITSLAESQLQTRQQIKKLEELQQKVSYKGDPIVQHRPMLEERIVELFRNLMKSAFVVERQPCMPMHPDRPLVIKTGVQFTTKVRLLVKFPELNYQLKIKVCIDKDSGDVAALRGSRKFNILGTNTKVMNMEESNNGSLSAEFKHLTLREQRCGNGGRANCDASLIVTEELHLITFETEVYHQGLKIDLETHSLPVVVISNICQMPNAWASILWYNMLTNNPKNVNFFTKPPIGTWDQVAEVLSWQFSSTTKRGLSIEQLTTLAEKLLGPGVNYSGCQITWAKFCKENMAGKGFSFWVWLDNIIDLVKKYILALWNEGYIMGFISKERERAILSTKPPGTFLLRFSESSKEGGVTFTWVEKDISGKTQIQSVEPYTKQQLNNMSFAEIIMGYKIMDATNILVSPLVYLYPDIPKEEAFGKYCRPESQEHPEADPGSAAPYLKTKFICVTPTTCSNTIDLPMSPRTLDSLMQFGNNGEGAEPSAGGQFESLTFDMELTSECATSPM
UniProt O95619: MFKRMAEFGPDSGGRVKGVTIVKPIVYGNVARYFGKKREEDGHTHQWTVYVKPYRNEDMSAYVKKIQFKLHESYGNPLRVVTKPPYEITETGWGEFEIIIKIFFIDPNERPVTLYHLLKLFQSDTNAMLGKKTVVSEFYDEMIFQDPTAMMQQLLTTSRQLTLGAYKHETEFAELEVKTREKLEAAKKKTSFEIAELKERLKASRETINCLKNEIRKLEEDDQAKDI
UniProt Q9BQA1: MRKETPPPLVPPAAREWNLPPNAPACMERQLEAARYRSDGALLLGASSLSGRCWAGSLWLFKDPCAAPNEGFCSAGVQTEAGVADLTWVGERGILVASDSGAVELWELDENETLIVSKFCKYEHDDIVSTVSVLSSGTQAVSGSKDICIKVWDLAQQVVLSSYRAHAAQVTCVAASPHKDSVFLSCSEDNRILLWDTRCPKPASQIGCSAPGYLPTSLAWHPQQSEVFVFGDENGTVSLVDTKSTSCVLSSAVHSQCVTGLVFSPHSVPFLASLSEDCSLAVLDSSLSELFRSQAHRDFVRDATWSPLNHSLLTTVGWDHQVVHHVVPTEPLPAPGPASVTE

Columns and labels:
[1] = molecular target: T1, FLAG-tagged C/EBPβ (Figure 6A, 6B) (UniProt Q05826); experiment: co-IP; HEK293T cells; FLAG-tagged C/EBPβ with the MLL/Ash2/Wdr5 complex (Figure 6A) and co-expressed with GFP-tagged Spt16 and SSRP1 (Figure 6B left)
T1 sequence: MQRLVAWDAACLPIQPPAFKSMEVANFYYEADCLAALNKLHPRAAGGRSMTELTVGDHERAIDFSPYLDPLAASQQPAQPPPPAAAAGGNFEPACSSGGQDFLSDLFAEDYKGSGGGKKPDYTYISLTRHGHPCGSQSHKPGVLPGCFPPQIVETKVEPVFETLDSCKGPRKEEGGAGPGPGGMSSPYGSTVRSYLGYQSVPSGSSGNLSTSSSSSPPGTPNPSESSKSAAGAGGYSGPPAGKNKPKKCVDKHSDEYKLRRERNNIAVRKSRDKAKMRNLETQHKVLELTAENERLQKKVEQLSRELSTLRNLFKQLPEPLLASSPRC

[2] = molecular target: T2, FLAG-tagged LAP* C/EBPβ (UniProt Q05826); experiment: co-IP; FLAG-tagged C/EBPβ constructs expressed in HEK293 (HEK293T) cells and immunoprecipitated; endogenous partners detected by immunoblotting (Figures 4C, 4D, 5B, 6B right)
T2 sequence: T1 sequence

[3] = molecular target: T3, FLAG-tagged C/EBPβ R193L (chicken) (UniProt Q05826); experiment: as above
T3 sequence: T1 sequence with R193L

[4] = molecular target: T1, FLAG-tagged C/EBPβ (Figure 6A, 6B); experiment: as above
[5] = molecular target: T4, FLAG-tagged C/EBPβ R60A (chicken) (UniProt Q05826); experiment: as above
T4 sequence: T1 sequence with R60A

[6] = molecular target: T5, FLAG-tagged C/EBPβ R60L (chicken) (UniProt Q05826); experiment: as above
T5 sequence: T1 sequence with R60L

[7] = molecular target: T6, FLAG-tagged C/EBPβ wild-type (chicken) (UniProt Q05826); experiment: as above
T6 sequence: T1 sequence

[8] = molecular target: T7, FLAG-tagged C/EBPβ R193A (chicken) (UniProt Q05826); experiment: as above
T7 sequence: T1 sequence with R193A

[9] = molecular target: MBD2 (HA-tagged) (UniProt Q9UBB5); experiment: co-IP; HEK293T cells; immunoprecipitation of HA-tagged MBD2 or GFP-tagged MBD3, detection by western blot (Figure 6D)
[10] = molecular target: MBD3 (GFDP-tagged) (UniProt O95983); experiment: as above

Question: How did the binding [1] turn out when “Ash2 (Figure 6A) (from UniProt Q9UBL3 1-628)” was run?
Answer: Its binding is “binds”.

Question: Which binding [2] does the source give for “histone acetyltransferase GCN5 of the SAGA complex (from UniProt Q92830 1-837)” here?
Answer: The binding was “binds”.

Question: How did the binding [3] turn out when “transducin-like enhancer protein TLE3 (from UniProt Q04726 1-772)” was run?
Answer: The binding was “binds”.

Question: For MLL (from UniProt Q03164 1-3969), which binding [1] is on record?
Answer: The binding was “binds”.

Question: Which binding [4] does the source give for “endogenous FACT complex (Spt16 and SSRP1) (from UniProt Q9Y5B9 1-1047; Q08945 1-709)” here?
Answer: The binding was “binds”.

Question: “DNA methyltransferase-associated protein DMAP1 (from UniProt Q9NPF5 1-467)” was tested. Which binding [5] did it give?
Answer: Its binding is “no binding”.

Question: And the binding [6]?
Answer: Its binding is “binds”.

Question: And the binding [2]?
Answer: Its binding is “binds”.

Question: What about the binding [7] of the same substance?
Answer: The binding was “binds”.

Question: With “nuclear factor kappa B subunit RelA (from UniProt Q04206 1-551)” as the substance, how does the binding [8] read?
Answer: The binding was “binds”.

Question: And the binding [7]?
Answer: The binding was “binds”.

Question: What about the binding [3] of the same substance?
Answer: The binding was “binds”.

Question: For “signal transducer and activator of transcription STAT3 (from UniProt P40763 1-770)”, which binding [2] is on record?
Answer: The binding was “binds”.

Question: For YEATS4 (from UniProt O95619 1-227), which binding [5] is on record?
Answer: Its binding is “no binding”.

Question: And the binding [6]?
Answer: Its binding is “binds”.

Question: And the binding [7]?
Answer: The binding was “binds”.

Question: How did the binding [1] turn out when “GFP-tagged Spt16 and SSRP1 (FACT complex, co-expressed) (from UniProt Q9Y5B9 1-1047; Q08945 1-709)” was run?
Answer: Its binding is “binds”.

Question: With “WDR77(MEP50)/PRMT5 sub-module (from UniProt Q9BQA1 1-342; O14744 1-637) (complex)” as the substance, how does the binding [9] read?
Answer: Its binding is “binds”.

Question: What about the binding [10] of the same substance?
Answer: The binding was “no binding”.
